The other results are listed elsewhere or left out.
Columns and labels:
Assay in all cases: log2 fold change, soluble protein after heating vs DMSO (PISA); higher = thermal stabilisation; K562 cells, 10 uM, 30 min; active = over 0.2 and 3.5 SD of the protein, either way, in both replicates (recomputed)
[1] = compound: CC[C@@H]1C(=O)N(C)c2cnc(Nc3ccc(C(=O)NC4CCN(C)CC4)cc3OC)nc2N1C1CCCC1
In short: (§1)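 K562 cells at 2×10^6 cells/mL were given 10 μM compound for 30 min. Aliquots then went through 3 min of heating across 48°C-58°C, were pooled, and were extracted in PBS with 0.5% NP-40 at 4°C, and the supernatant after 21,000xg for 90 min was quantified by TMTpro 16plex LC-MS/MS with channel sums equalised. Thermal stability relative to control samples, from duplicates, is given as log2 fold change.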

Amino acid sequences for entries named in this document (tags omitted). A change or cut given only in a name is not applied to a line headed by its entry.
UniProt Q9BRB3: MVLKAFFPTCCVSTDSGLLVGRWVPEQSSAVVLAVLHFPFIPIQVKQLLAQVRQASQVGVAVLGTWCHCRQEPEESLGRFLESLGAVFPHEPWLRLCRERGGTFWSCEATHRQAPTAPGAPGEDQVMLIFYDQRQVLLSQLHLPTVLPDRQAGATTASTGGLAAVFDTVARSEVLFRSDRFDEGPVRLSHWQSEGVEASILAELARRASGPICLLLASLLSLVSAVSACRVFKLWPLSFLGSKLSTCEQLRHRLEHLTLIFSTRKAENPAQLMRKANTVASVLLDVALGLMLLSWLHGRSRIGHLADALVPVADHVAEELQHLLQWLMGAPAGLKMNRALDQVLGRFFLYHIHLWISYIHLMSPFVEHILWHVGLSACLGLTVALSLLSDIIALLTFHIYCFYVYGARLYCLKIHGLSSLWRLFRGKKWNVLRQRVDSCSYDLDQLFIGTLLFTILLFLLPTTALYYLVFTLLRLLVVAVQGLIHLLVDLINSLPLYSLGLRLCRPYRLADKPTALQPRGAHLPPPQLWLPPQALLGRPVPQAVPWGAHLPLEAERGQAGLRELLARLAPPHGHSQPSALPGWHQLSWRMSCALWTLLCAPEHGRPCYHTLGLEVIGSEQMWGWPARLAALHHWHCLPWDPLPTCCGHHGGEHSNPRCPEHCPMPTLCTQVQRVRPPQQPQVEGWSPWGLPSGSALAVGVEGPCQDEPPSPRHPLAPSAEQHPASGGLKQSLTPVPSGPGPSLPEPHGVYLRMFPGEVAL
UniProt P48736: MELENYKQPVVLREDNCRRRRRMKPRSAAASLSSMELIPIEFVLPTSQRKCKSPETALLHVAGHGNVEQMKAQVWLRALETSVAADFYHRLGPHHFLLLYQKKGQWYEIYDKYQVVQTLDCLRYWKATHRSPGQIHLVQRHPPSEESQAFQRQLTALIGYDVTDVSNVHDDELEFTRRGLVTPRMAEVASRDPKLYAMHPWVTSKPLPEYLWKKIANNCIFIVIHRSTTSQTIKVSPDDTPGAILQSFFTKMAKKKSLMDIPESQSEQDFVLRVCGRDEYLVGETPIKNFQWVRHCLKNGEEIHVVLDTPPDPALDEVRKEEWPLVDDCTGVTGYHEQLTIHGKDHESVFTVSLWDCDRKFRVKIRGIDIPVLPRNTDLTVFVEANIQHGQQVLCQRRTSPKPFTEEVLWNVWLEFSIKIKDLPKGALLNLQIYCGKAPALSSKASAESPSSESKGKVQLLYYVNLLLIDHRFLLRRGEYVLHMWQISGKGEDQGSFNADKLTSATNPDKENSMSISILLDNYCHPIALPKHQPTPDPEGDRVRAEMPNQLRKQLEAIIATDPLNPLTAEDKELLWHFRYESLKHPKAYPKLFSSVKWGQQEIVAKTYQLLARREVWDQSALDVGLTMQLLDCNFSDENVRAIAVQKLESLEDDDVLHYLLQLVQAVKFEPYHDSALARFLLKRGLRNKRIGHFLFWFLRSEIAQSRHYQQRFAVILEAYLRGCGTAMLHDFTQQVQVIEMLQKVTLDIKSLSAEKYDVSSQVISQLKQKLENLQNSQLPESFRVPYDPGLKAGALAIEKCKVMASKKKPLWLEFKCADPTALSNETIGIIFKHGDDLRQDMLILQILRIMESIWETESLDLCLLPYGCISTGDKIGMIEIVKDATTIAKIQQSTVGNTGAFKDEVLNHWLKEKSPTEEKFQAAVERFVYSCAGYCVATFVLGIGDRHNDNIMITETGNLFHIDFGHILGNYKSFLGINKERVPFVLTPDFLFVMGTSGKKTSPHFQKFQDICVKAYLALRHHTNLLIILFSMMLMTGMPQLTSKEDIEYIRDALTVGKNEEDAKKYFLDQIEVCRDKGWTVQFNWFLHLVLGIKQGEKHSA
UniProt P60673: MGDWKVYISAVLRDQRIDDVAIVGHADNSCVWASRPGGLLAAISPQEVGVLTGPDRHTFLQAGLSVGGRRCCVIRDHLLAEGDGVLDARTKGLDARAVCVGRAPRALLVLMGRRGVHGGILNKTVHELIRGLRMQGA
UniProt P16885: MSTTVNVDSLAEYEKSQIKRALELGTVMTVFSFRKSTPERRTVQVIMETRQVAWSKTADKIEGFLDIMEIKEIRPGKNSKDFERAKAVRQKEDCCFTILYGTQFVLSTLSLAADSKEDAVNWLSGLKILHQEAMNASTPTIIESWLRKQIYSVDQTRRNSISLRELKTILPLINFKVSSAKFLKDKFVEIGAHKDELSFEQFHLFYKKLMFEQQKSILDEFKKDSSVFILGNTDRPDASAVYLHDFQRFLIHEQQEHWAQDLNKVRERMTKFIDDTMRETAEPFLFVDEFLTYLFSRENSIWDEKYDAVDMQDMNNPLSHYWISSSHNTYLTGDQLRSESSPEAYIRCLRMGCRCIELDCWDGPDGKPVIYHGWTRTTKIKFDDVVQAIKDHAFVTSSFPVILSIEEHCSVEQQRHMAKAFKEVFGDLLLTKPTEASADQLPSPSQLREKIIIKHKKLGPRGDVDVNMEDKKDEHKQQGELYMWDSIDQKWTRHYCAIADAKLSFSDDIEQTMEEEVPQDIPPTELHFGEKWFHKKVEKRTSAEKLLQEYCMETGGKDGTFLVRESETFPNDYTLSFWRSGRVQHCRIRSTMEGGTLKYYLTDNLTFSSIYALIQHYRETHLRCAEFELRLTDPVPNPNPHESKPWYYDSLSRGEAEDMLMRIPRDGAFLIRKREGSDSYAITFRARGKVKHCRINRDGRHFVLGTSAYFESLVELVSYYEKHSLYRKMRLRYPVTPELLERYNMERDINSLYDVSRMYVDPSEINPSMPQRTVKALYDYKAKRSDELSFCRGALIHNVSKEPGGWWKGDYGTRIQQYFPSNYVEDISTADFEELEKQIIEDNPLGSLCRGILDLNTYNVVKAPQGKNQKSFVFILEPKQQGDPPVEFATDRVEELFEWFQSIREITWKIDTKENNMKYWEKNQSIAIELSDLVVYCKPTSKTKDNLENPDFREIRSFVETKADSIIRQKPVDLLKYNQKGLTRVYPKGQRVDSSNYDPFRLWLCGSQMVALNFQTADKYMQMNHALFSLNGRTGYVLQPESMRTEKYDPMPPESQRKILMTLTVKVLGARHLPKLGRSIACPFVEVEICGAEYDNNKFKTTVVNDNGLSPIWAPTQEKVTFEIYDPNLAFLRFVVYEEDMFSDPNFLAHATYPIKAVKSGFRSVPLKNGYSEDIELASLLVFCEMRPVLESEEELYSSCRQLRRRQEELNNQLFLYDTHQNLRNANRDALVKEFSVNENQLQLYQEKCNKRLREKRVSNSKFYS
UniProt Q9Y446: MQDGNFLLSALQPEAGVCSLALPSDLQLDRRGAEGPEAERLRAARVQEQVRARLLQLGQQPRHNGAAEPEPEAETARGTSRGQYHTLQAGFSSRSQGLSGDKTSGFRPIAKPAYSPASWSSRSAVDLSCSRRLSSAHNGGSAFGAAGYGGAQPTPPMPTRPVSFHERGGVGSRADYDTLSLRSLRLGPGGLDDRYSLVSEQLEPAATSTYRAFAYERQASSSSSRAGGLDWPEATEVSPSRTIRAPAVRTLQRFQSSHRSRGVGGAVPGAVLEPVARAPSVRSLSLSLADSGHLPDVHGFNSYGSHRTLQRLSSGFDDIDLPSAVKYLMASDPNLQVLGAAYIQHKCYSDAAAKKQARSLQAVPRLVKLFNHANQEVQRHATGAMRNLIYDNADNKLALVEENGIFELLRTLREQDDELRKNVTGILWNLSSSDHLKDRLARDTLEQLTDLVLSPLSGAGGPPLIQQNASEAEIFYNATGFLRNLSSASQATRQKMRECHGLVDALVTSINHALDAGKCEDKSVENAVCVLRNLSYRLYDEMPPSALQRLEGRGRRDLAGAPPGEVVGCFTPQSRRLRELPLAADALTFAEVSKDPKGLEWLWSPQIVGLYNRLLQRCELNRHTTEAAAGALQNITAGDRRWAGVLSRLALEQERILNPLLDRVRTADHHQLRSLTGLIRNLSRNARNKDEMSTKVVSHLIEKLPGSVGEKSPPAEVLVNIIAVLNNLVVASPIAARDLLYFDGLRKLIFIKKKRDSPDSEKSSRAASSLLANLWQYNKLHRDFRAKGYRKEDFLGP
UniProt Q8IXK0: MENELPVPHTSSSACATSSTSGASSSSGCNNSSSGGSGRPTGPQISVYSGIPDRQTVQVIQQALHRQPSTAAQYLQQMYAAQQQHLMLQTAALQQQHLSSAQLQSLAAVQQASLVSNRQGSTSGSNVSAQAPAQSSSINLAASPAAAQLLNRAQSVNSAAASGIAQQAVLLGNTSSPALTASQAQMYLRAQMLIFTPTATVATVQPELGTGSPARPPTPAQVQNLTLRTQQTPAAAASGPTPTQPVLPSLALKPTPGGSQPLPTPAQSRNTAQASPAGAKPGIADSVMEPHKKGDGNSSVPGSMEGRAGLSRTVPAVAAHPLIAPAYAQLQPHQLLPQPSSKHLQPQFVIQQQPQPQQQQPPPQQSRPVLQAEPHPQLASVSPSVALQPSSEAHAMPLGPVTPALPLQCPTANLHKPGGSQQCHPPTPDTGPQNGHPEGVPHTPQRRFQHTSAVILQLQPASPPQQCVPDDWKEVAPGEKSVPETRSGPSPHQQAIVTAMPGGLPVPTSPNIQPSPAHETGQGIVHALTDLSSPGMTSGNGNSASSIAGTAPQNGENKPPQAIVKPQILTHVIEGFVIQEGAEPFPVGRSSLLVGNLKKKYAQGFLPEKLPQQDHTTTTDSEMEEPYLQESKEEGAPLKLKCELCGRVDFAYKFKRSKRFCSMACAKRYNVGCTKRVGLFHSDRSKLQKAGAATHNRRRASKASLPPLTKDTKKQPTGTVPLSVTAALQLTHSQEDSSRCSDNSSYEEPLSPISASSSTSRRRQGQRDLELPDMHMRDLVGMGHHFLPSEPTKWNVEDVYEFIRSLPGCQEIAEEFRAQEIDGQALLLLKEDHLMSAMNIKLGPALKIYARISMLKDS
UniProt Q9HAU0: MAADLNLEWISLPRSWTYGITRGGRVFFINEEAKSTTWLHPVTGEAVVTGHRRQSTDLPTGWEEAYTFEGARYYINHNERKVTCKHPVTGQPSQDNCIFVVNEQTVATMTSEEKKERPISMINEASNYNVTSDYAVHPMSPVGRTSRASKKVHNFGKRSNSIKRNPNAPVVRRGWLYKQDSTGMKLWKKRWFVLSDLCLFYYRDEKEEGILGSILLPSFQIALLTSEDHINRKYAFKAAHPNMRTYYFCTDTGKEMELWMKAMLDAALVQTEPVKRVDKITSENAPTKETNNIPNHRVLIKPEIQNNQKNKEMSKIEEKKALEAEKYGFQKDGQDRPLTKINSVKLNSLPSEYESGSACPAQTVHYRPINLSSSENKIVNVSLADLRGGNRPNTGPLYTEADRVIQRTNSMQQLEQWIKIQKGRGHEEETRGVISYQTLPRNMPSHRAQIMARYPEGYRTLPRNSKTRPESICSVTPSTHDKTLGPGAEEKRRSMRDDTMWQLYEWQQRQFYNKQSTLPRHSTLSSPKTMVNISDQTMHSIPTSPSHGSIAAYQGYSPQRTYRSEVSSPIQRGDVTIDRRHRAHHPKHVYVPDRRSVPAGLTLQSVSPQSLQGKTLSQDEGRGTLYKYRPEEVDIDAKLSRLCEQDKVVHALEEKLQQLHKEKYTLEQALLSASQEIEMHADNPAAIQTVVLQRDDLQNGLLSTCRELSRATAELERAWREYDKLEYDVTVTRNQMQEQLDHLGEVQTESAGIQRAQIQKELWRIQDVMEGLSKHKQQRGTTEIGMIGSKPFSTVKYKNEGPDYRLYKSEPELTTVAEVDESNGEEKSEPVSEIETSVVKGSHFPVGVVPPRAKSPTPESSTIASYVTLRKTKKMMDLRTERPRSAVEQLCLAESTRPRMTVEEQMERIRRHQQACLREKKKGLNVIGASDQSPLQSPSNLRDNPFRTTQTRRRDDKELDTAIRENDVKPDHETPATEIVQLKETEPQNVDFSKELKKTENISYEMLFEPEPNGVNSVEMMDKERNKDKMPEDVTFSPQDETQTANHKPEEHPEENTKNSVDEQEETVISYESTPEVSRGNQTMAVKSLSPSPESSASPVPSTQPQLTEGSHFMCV
UniProt Q14442: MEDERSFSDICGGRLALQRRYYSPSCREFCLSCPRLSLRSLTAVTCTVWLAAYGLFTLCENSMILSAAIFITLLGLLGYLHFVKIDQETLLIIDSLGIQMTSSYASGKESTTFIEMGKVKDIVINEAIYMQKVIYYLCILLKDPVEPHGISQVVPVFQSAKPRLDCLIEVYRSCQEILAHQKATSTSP

[2] = compound: CC[C@H](C)N1C=C(C2=C(C=C(C=C21)C3=CN=C(C=C3)N4CCNCC4)C(=O)NCC5=C(C=C(NC5=O)C)C)C
In short: as §1

[3] = compound: CCn1cc(-c2ccnc3[nH]c(-c4cccc(CN(C)C)c4)cc23)c(-c2ccc(NC(=O)N(C)C)cc2)n1
In short: as §1

[4] = compound: CN(C)CC(=O)Nc1ccc2[nH]c(=O)c3ccccc3c2c1
In short: as §1

[5] = compound: CN1C2=C(C3=C1C(=O)N(N=C3)CC4=CC(=CC=C4)N)SC(=C2)S(=O)C
In short: as §1

[6] = compound: CN1CCC(CNc2ccc3ncc(-c4cccc(OC(F)(F)F)c4)n3n2)CC1
In short: as §1

saracatinib = compound: CN1CCN(CCOc2cc(OC3CCOCC3)c3c(Nc4c(Cl)ccc5c4OCO5)ncnc3c2)CC1 [saracatinib]
In short: as §1

sotrastaurin = compound: CN1CCN(c2nc(C3=C(c4c[nH]c5ccccc45)C(=O)NC3=O)c3ccccc3n2)CC1 [sotrastaurin]
In short: as §1

Tubastatin A = compound: CN1CCc2c(c3ccccc3n2Cc2ccc(C(=O)NO)cc2)C1 [Tubastatin A]
In short: as §1

[7] = compound: CNC(=O)C1=CC=CC=C1NC2=NC(=NC=C2Cl)NC3=C(C=C(C=C3)N4CCOCC4)OC
In short: as §1

defactinib = compound: CNC(=O)c1ccc(Nc2ncc(C(F)(F)F)c(NCc3nccnc3N(C)S(C)(=O)=O)n2)cc1 [defactinib]
In short: as §1

rucaparib = compound: CNCc1ccc(-c2[nH]c3cc(F)cc4c3c2CCNC4=O)cc1 [rucaparib]
In short: as §1

[8] = compound: CNc1nc(-c2ccc3c(N)n[nH]c3c2)cc(N2C[C@@H](C(=O)NC3CCCCC3)CC[C@H]2C)n1
In short: as §1

encorafenib = compound: COC(=O)N[C@@H](C)CNc1nccc(-c2cn(C(C)C)nc2-c2cc(Cl)cc(NS(C)(=O)=O)c2F)n1 [encorafenib]
In short: as §1

[9] = compound: COC(=O)[C@H](CCSC)NC(=O)C1=C(C=C(C=C1)NC[C@H](CS)N)C2=CC=CC=C2
In short: as §1

volasertib = compound: CC[C@@H]1C(=O)N(C)c2cnc(Nc3ccc(C(=O)N[C@H]4CC[C@H](N5CCN(CC6CC6)CC5)CC4)cc3OC)nc2N1C(C)C [volasertib]
In short: as §1

epoxomicin = compound: CC[C@H](C)[C@@H](C(=O)N[C@@H]([C@@H](C)O)C(=O)N[C@@H](CC(C)C)C(=O)[C@]1(CO1)C)NC(=O)[C@H]([C@@H](C)CC)N(C)C(=O)C [epoxomicin]
In short: as §1

[10] = compound: CCn1c(C(=O)N(C2CC2)C2CC2)cc2c3c(ncn3C)c(Nc3cc(C)n(C)n3)nc21
In short: as §1

alvocidib = compound: CN1CC[C@H](c2c(O)cc(O)c3c(=O)cc(-c4ccccc4Cl)oc23)[C@H](O)C1 [alvocidib]
In short: as §1

rosiglitazone = compound: CN(CCOC1=CC=C(C=C1)C[C@H]2C(=O)NC(=O)S2)C3=CC=CC=N3 (racemic) [rosiglitazone]
In short: as §1

Measured: log2 fold change

PI4K2B (UniProt Q8TCG2)
inactive: [1] -0.147 | [2] -0.039 | [3] 0.045 | [4] -0.024 | [5] 0.079 | [6] -0.1 | saracatinib -0.067 | sotrastaurin 0.04 | Tubastatin A 0.028 | [7] -0.016 | defactinib 0.003 | rucaparib 0.097 | [8] -0.096 | encorafenib -0.148 | [9] -0.099

PIGB (UniProt Q92521)
inactive: [1] -0.229 | volasertib 0.013 | epoxomicin 0.028 | [10] 0.007 | [3] 0.058 | [5] -0.175 | [6] -0.043 | saracatinib -0.035 | sotrastaurin -0.046 | alvocidib 0.035 | Tubastatin A 0.082 | [7] -0.193 | rucaparib -0.007 | [8] -0.027 | encorafenib -0.074

PIGQ (UniProt Q9BRB3)
inactive: [1] -0.106 | [2] -0.077 | epoxomicin -0.265 | [10] 0.203 | [3] -0.069 | [4] 0.064 | rosiglitazone 0.082 | [5] 0.216 | [6] 0.034 | saracatinib -0.084 | sotrastaurin 0.087 | alvocidib -0.146 | Tubastatin A -0.274 | [7] -0.07 | defactinib -0.108 | rucaparib -0.165 | [8] 0.062 | encorafenib -0.106 | [9] -0.161

PIK3CG (UniProt P48736)
inactive: [1] 0.047 | epoxomicin 0.02 | [10] 0.168 | sotrastaurin -0.518 | [7] 0.015 | rucaparib 0.136 | encorafenib 0.159

PFN3 (UniProt P60673)
inactive: [1] 0.075 | volasertib 0.069 | epoxomicin -0.306 | [3] -0.08 | [4] 0.001 | [5] 0.321 | [6] -0.338 | saracatinib 0.015 | sotrastaurin -0.448 | alvocidib 0.437 | Tubastatin A -0.022 | defactinib -0.145 | rucaparib -0.272 | [8] -0.118 | encorafenib 0.053 | [9] -0.292

PLCG2 (UniProt P16885)
inactive: [1] 0.04 | [10] -0.06 | rosiglitazone 0.06 | [7] -0.039 | rucaparib -0.209 | encorafenib -0.02

PKP3 isoform 2 (UniProt Q9Y446)
inactive: [1] 0.199 | volasertib -0.238 | epoxomicin -0.014 | [3] 0.04 | [4] 0.072 | rosiglitazone 0.06 | [5] 0.288 | [6] -0.077 | saracatinib -0.278 | sotrastaurin -0.071 | alvocidib -0.021 | Tubastatin A 0.072 | defactinib -0.166 | rucaparib 0.255 | [8] 0.108 | encorafenib 0.057 | [9] -0.127

PHC2 isoform 5 (UniProt Q8IXK0)
inactive: [1] 0.059 | epoxomicin -0.233 | [4] 0.025 | rosiglitazone -0.153 | [5] 0.234 | saracatinib 0.056 | sotrastaurin -0.055 | alvocidib -0.263 | defactinib 0.012 | rucaparib 0.127 | [8] 0.041 | encorafenib 0.351 | [9] -0.038

Fetched one by one from above (two):
PI4K2B (UniProt Q8TCG2)
inactive: [1] -0.147 | [2] -0.039 | [3] 0.045 | [4] -0.024 | [5] 0.079 | [6] -0.1 | saracatinib -0.067 | sotrastaurin 0.04 | Tubastatin A 0.028 | [7] -0.016 | defactinib 0.003 | rucaparib 0.097 | [8] -0.096 | encorafenib -0.148 | [9] -0.099

PIGQ (UniProt Q9BRB3)
inactive: [1] -0.106 | [2] -0.077 | epoxomicin -0.265 | [10] 0.203 | [3] -0.069 | [4] 0.064 | rosiglitazone 0.082 | [5] 0.216 | [6] 0.034 | saracatinib -0.084 | sotrastaurin 0.087 | alvocidib -0.146 | Tubastatin A -0.274 | [7] -0.07 | defactinib -0.108 | rucaparib -0.165 | [8] 0.062 | encorafenib -0.106 | [9] -0.161

Later entries.

PHC3 isoform 7 (UniProt Q8NDX5)
inactive: [1] 0.076 | volasertib -0.163 | [2] 0.178 | epoxomicin 0.254 | sotrastaurin -0.071 | [7] -0.007 | rucaparib -0.276 | encorafenib 0.154

PGK2 (UniProt P07205)
inactive: [1] 0.054 | volasertib 0.123 | [2] -0.028 | epoxomicin -0.037 | [3] 0.123 | [4] -0.112 | [5] -0.059 | [6] 0.06 | saracatinib -0.196 | sotrastaurin 0.154 | Tubastatin A -0.041 | defactinib 0.037 | rucaparib -0.248 | [8] -0.131 | encorafenib -0.056 | [9] 0.038

PLEKHA5 isoform 6 (UniProt Q9HAU0)
inactive: [1] -0.13 | epoxomicin -0.095 | [10] -0.042 | [3] 0.05 | [4] -0.092 | [6] -0.114 | alvocidib 0.045 | Tubastatin A 0.115 | [7] -0.227 | defactinib 0.161 | rucaparib 0.707 | encorafenib 0.378 | [9] -0.027

PHKA1 (UniProt P46020)
inactive: [1] 0.042 | volasertib -0.367 | [2] 0.076 | epoxomicin -0.039 | [3] 0.143 | [5] 0.112 | [6] -0.045 | saracatinib -0.12 | sotrastaurin 0.058 | Tubastatin A -0.256 | [7] 0.101 | rucaparib -0.283 | [8] 0.027 | encorafenib -0.295

PIGH (UniProt Q14442)
inactive: [1] 0.06 | volasertib -0.008 | epoxomicin -0.128 | [3] -0.038 | [4] 0.013 | [5] 0.115 | [6] 0.051 | saracatinib -0.099 | [7] 0.012 | defactinib 0.005 | rucaparib 0.037 | [8] 0.025 | encorafenib -0.068 | [9] -0.001
active: Tubastatin A -0.274

PFN1 (UniProt I3L3D5)
inactive: [1] 0.027 | volasertib 0.105 | epoxomicin -0.151 | [10] -0.242 | [3] -0.078 | rosiglitazone -0.067 | [6] -0.192 | sotrastaurin 0.156 | alvocidib 0.153 | Tubastatin A -0.151 | [7] -0.162 | rucaparib 0.131 | encorafenib -0.141

Reference: the supplement of paper PMC10849652
